Source: paper PMC9866861, “The More the Better—Investigation of Polymethoxylated N-Carboranyl Quinazolines as Novel Hybrid Breast Cancer Resistance Protein Inhibitors” (Pharmaceutics, 2023)
Some entries repeat one wording, which the source may state once for all of them.

System: MDCKII-hABCG2 and MDCKII-WT cells
Assay: Autofluorescence (modified Hoechst assay without dye)
Format: cell-based, canine
Conditions: 0.5 and 1.0 µM, 4 h, no Hoechst dye; Ko143 1 µM

| Compound | autofluorescence (total intracellular fluorescence vs solvent control) |
| --- | --- |
| COc1ccc2c3c([nH]c2c1)[C@H](CC(C)C)N1C(=O)[C@H](CCC(=O)OC(C)(C)C)NC(=O)[C@@H]1C3 [Ko143, (3S,6S,12aS)-1,2,3,4,6,7,12,12a-octahydro-9-methoxy-6-(2-methylpropyl)-1,4-dioxopyrazino[1′,2′:1,6]pyrido[3,4-b]indole-3-propanoic acid 1,1-dimethylethyl ester, reference compound] | emitted no fluorescence itself |
| N-(closo-1,7-dicarbadodecaboran(12)-9-yl)-2-(3,4,5-trimethoxyphenyl)-quinazolin-4-amine [QCd] | dose-dependent significant increase in the total intracellular fluorescence |
| N-(closo-1,7-dicarbadodecaboran(12)-9-yl)-2-(3,4-dimethoxyphenyl)-quinazolin-4-amine [QCc] | enhanced the intracellular fluorescence in a significant manner |
| N-(closo-1,7-dicarbadodecaboran(12)-9-yl)-2-(4-methoxyphenyl)-quinazolin-4-amine [QCb] | dose-dependent significant increase in the total intracellular fluorescence |
| N-(closo-1,7-dicarbadodecaboran(12)-9-yl)-6,7-dimethoxy-2-(3,4,5-trimethoxyphenyl)-quinazolin-4-amine [DMQCd] | dose-dependent significant increase in the total intracellular fluorescence |
| N-(closo-1,7-dicarbadodecaboran(12)-9-yl)-6,7-dimethoxy-2-(3,4-dimethoxy-phenyl)-quinazolin-4-amine [DMQCc] | dose-dependent significant increase in the total intracellular fluorescence |
| N-(closo-1,7-dicarbadodecaboran(12)-9-yl)-6,7-dimethoxy-2-(4-methoxy-phenyl)quinazolin-4-amine [DMQCb] | dose-dependent significant increase in the total intracellular fluorescence |
| N-(closo-1,7-dicarbadodecaboran(12)-9-yl)-6,7-dimethoxy-2-phenyl-quinazolin-4-amine [DMQCa] | dose-dependent significant increase in the total intracellular fluorescence |
